Reference: paper PMC12431657, “Discovery and mechanistic insights of dibenzoylmethane as a broad spectrum inhibitor of coronavirus” (PLOS Pathogens, 2025)
What follows is the remainder of the data, with few or none of the strong results.

Columns and labels:
[1] = test system: HCoV-229E; parameters: species or system Huh-7; HTS, protection from HCoV-229E induced cell death, luminescent cell viability (CellCounting-Lite 2.0), inhibition rate; conditions: 24 h post infection, 1 h compound pre-incubation; 10 µM; inhibitor
[2] = test system: HCoV-OC43; parameters: species or system RD; HTS, protection from HCoV-OC43 induced cell death, luminescent cell viability (CellCounting-Lite 2.0), inhibition rate; conditions: 24 h post infection, 1 h compound pre-incubation; 10 µM; inhibitor

For `Cc1ccc2nc(C)ccc2c1` [2,6-Dimethylquinoline], the “229E Inhibition rate” value [1] was 36% and the “OC43 Inhibition rate” value [2] was 0%.
